## Primary screen of a compound library

A: 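Whole-cell growth test on Mycobacterium tuberculosis, read after 4 days in a medium based on cholesterol and the lipid DPPC; the read-out is not stated. Concentration: 50 µM. Direction is inferred from retests: higher values go with more growth inhibition. Size under these conditions: about 69,000 compounds, about 370 of them at 50% or above in at least one test.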
B: 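Whole-cell growth test on Mycobacterium tuberculosis, read after 3 days in glucose-containing 7H9 medium; the read-out is not stated. Concentration: 50 µM. Higher reads as more growth inhibition (inferred: compounds with an IC50 in retests scored well above the rest). Size under these conditions: about 69,000 compounds, about 760 of them at 50% or above in at least one test.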

Results are given as percent effect. How 0% and 100% were set is not recorded. Most values in the screen are low, and negative values occur. The compounds are a random part of those screened. Two or more numbers in one place are separate tests of the same structure; such repeats can differ widely.

SMILES: CC(C)(C)c1nc(NS(=O)(=O)c2cccc(F)c2)no1
A: 2.818
B: -15.15

SMILES: O=C(COC1CCCCC1)Nc1ccn(Cc2ccccn2)n1
A: -15.59
B: 9.114

SMILES: CC(c1ccccc1)n1c(SCC(=O)O)nnc1-c1ccccc1Cl (centres undefined)
A: -1.705
B: 0.9068 and 16.03

SMILES: Cc1cnccc1N1CCCN(C(=O)CCn2ccnc2C)CC1
A: 18.07
B: 4.357 and -3.478

SMILES: O=C(O)c1cccc(CN2CCCC(c3ccn[nH]3)C2)c1 (centres undefined)
A: -23.83 and -0.8906
B: -27.24

SMILES: CN(Cc1cnn(C)c1)C(=O)NCc1csc(Br)c1
A: -9.661
B: -44.87

SMILES: Cn1nnnc1SC1CCCN(c2ccccc2Cl)C1=O (centres undefined)
A: -6.17
B: 4.511

SMILES: NCC1(c2cccc(C(F)(F)F)c2)CCC1
A: 3.268
B: -1.066

SMILES: CC(=O)Nc1cccc(CNC(=O)N(C)Cc2ccccc2)c1
A: 3.327
B: 8.667 and 13.68

SMILES: O=C(O)C(F)(F)F.O=C(O)C(F)(F)F.[H][C@@]12CCN(Cc3cccc(C)n3)[C@@]1([H])CCN2C(=O)Cc1ccsc1
A: 8.083
B: -13.93

SMILES: COc1cc2nc3n(c(=O)c2cc1OC)CCN(C(=O)C1CCC1)CC3
A: 3.225
B: 23.87

SMILES: CC(C)C1CN(C(=O)c2cccs2)CCS1 (centres undefined)
A: 13.54
B: 25.33 and 19.79

SMILES: Cc1c(C(=O)N2CCC(C(=O)c3nc4ccccc4s3)CC2)cnn1C
A: -13.76 and -2.904
B: 8.877

SMILES: CNC(=O)CN1CCOCC2(C1)CN(Cc1csnn1)CCO2 (centres undefined)
A: -36.91
B: 17.18

SMILES: CC(C)N1CCCC2(CCN(C(=O)CCCn3ccnc3)C2)C1=O (centres undefined)
A: -3.787
B: 9.568

SMILES: COc1cc(CNC2CCCc3c2cnn3C)cc(OC)c1.Cl (centres undefined)
A: -4.784
B: -0.8633

SMILES: COCCN(C)C(C(=O)O)c1ccc(Cl)c(F)c1 (centres undefined)
A: 5.018
B: -4.522

SMILES: Cn1ncc2c(N[C@H]3CCCC[C@@H]3O)nc(C(C)(C)C)nc21
A: -0.03308
B: -22.73

SMILES: Cc1nc2c(c(NCCc3nccs3)n1)CCN(CC1CC1)CC2
A: -6.065
B: -0.06458

SMILES: CCOC(=O)Cn1ccc(NC(=O)Cc2ccccc2F)n1
A: -13.11
B: -5.555 and 0.4136

SMILES: CCc1nc(N2CCN(Cc3ncccc3C)CC2)c2cnn(C)c2n1
A: 1.929
B: 13.52 and -6.071

SMILES: Cl.Cn1ccnc1N1CCN(C(=O)Cc2ccc(F)cc2)CC1
A: -15.84
B: 9.375

SMILES: Fc1cccc(Cl)c1CN1CCC(c2n[nH]c3ncccc23)CC1
A: -9.826
B: -13.89

SMILES: Cc1ccccc1C(C(=O)NCCn1cccc1)N(C)C (centres undefined)
A: 4.342
B: 9.824 and -0.772

SMILES: CCc1nc(C2CCCN2C(=O)c2cnc[nH]2)no1 (centres undefined)
A: -1.356
B: -8.181

SMILES: O=C(N[C@@H]1CCN(Cc2cc3ccccc3s2)C[C@H]1O)c1cccnc1
A: 11.45
B: 9.636

SMILES: CCc1cc(C(=O)N2CCCC2c2nc(C)c(F)c(O)n2)on1 (centres undefined)
A: -13.98
B: -32.39

SMILES: Cc1ccc(-c2cc(C(=O)N(C)Cc3noc4c3CCCC4)[nH]n2)o1
A: 3.956
B: -4.431

SMILES: Cc1nnc(CN2CCCCC2c2nc(-c3ccccc3)no2)s1 (centres undefined)
A: 8.036
B: 15.8

SMILES: c1csc(SCC2CN=C(N3CCOCC3)S2)c1 (centres undefined)
A: -8.809
B: 9.319

SMILES: Cc1cn(Cc2ccc(F)cc2)nc1N
A: 10.2
B: 17.1

SMILES: Cc1ccccc1S(=O)(=O)N1CCC(c2[nH]ncc2C)C1 (centres undefined)
A: -6.981
B: 18.89

SMILES: CC(C)c1nncn1CCNC(=O)c1ccc(Cl)cc1O
A: -10.02
B: -6.631

SMILES: CCn1nccc1CN(C)C(=O)Cn1nc(C)cc1C
A: -3.994 and -9.429
B: -16.58

SMILES: O=C(Nc1cc(CSCCO)ccn1)c1ccc(Cl)o1
A: 5.814
B: 11.4

Some entries from above, unchanged:

- CC(C)(C)c1nc(NS(=O)(=O)c2cccc(F)c2)no1 : A: 2.818%; B: -15.15%
- Cc1ccccc1C(C(=O)NCCn1cccc1)N(C)C (centres undefined) : A: 4.342%; B: 9.824% and -0.772%
- CCc1nc(N2CCN(Cc3ncccc3C)CC2)c2cnn(C)c2n1 : A: 1.929%; B: 13.52% and -6.071%
- Cn1nnnc1SC1CCCN(c2ccccc2Cl)C1=O (centres undefined) : A: -6.17%; B: 4.511%

Source: ChEMBL document CHEMBL3988442, “University of Dundee, Small-Polar-MMV Screening Library” (2021).